Measured values taken from PMC10754441.

Molecular target: T1, TipR (Caulobacter crescentus NA1000) (UniProt A0A0H3C6G9)
T1 sequence (looked up, limits assumed): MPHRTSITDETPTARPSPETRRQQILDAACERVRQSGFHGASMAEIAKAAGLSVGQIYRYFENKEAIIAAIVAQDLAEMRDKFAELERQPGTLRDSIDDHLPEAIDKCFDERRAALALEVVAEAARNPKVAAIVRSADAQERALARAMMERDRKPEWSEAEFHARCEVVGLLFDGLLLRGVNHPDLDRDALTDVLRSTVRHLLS
Assay: EMSA
Conditions: EMSA: 40 mM Tris-HCl pH 7.6, 60 mM KCl, 0.1% glycerol, 240 ug calf DNA, 800 ug BSA, 100-200 ng probe, 30 min room temperature, 4% native TBE acrylamide gel, recombinant protein, protein details: untagged, label: Cy5, probe letters rebuilt from the primers and the genome

| Sequence | binding result (1.125-18 uM TipR) | binding result (crystal violet, 8 uM TipR, less efficient than EtBr or MG) | binding result (ethidium bromide, 8 uM TipR, interferes) | binding result (malachite green, 8 uM TipR, interferes) | binding result (rhodamine 6G, 8 uM TipR, less efficient than EtBr or MG) |
| --- | --- | --- | --- | --- | --- |
| ATGTTGCGCCAGAAGGACATGGGTCGCCTCGAAACCAGCAACGGACAGGAGAGATACGCACGACAAAGCGACCGGATCACCTCATTCCGCGCTTCTAGCACAATGAGAATGATCGTTCACATGACTTTAGTGCAATGCGGCGAGAGCCCGCACCAATACCGCCAAGGAGCCGAACGCGCTTCGAGTGGCTATGGCTCCGCTTGGCGGCCGATACGGCGCCGCCACGCAACGGTCCCAATCCGGATCGAAATGCTCTAGTGACGACACCTGACAACAAAAAGGACCTCCGCCGCATGGCGAACGCCCTCTTCCTA (double strand) [PdjlA] | binds |  |  |  |  |
| GGCGGCGAGTCCCACGGTCGTCGCCGCGACCGAGCGTTGGAAATGCATGTTTGACCCCGGGAGGCGAGGGTCGCGCGGGCTCTTACCCTTGACGCGGCCACTATGATGAACGATTTGAGAATGAACGTTCATTCTCATGTGGGCTGGACATAAGAGCTGGAGTGTCGCAAGTCAACCTCCGGCGCCGCGCGTTTGGCTGACCTAACGGAAATGTAATGCCGCACAGGACTTC (double strand) [PacrA] |  | binds more weakly | binds more weakly | binds more weakly | binds more weakly |
| TACCACGCGAAGGTCCATGTCGAGGGCCTGCGGCGCCTGGGTCCCTCGCCGATCCATCGGCTGGGCTGGGCCCCGGTGAAGGCGGCTCTGGCGGCGGCGGCGGTCAACGGCGAGCTAGACCTTTGAACGTCTTCAACTTTTGAGTCTGATCAGACTCAAAAGCGCCTGAAAGGCCGTGGTTAACGGCCCGCTAACCACGTCTCTCAACACCGGATTTACCAGGAAGACTCATGATTCCGCTCTCTTTCTTGAGGACGTGGGACCATGAAGTTCGGGCCGGAAACCATCATCCACGGCGACTGCATCGAGCAGATGAACGC (double strand) [PccrM] | no binding |  |  |  |  |

Construct, isoform or probe ends are uncertain for at least one entry. A negative result means that nothing was seen under these conditions. Protein sequences can lack the tags named with them. The comparison behind a weaker result is the experiment's own reference, which may not be listed here.
